This is an account of results in article PMC12524113.

The target in the assay is T1, FCRL3, untagged, transiently expressed in HEK cells (human) (UniProt Q96P31).
T1 sequence: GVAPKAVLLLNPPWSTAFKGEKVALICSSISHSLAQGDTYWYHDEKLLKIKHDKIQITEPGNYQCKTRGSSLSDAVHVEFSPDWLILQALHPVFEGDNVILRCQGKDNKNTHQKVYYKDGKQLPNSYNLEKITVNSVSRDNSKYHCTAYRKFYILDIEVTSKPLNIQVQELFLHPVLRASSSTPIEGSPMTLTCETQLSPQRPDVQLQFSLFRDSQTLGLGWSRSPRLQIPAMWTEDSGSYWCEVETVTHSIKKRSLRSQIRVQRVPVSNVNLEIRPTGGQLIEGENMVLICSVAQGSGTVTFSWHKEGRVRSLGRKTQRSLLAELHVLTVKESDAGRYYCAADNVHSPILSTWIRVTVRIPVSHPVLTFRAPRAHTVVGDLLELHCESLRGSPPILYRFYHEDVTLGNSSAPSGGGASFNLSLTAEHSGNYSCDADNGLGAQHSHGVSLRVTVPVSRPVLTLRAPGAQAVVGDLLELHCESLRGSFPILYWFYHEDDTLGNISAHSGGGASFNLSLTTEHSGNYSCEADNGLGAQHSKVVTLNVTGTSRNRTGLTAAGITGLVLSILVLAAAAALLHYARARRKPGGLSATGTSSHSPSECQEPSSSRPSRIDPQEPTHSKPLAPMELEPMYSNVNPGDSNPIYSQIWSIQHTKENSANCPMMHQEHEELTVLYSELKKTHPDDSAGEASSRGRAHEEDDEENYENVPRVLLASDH
The assay is described as follows: co-IP; HEK cells transfected with FCRL3 and UBASH3A plasmids; 700 µg lysate, IP with rabbit polyclonal anti-FCRL3 antibody and protein A magnetic beads overnight at 4°C; immunoblot for UBASH3A.

These are yes or no findings as the source states them, for the method shown. In cells and extracts the contact can be indirect. Some binding calls cover weakened binding; strength is not graded here. Where a sequence is shown, tags or fusion partners need not be part of it.

B1: WT-long-UBASH3A-V5-6xHis, transiently expressed in HEK cells (enzyme, UniProt P57075 1-661)
chain: MAAGETQLYAKVSNKLKSRSSPSLLEPLLAMGFPVHTALKALAATGRKTAEEALAWLHDHCNDPSLDDPIPQEYALFLCPTGPLLEKLQEFWRESKRQCAKNRAHEVFPHVTLCDFFTCEDQKVECLYEALKRAGDRLLGSFPTAVPLALHSSISYLGFFVSGSPADVIREFAMTFATEASLLAGTSVSRFWIFSQVPGHGPNLRLSNLTRASFVSHYILQKYCSVKPCTKQLHLTLAHKFYPHHQRTLEQLARAIPLGHSCQWTAALYSRDMRFVHYQTLRALFQYKPQNVDELTLSPGDYIFVDPTQQDEASEGWVIGISQRTGCRGFLPENYTDRASESDTWVKHRMYTFSLATDLNSRKDGEASSRCSGEFLPQTARSLSSLQALQATVARKSVLVVRHGERVDQIFGKAWLQQCSTPDGKYYRPDLNFPCSLPRRSRGIKDFENDPPLSSCGIFQSRIAGDALLDSGIRISSVFASPALRCVQTAKLILEELKLEKKIKIRVEPGIFEWTKWEAGKTTPTLMSLEELKEANFNIDTDYRPAFPLSALMPAESYQEYMDRCTASMVQIVNTCPQDTGVILIVSHGSTLDSCTRPLLGLPPRECGDFAQLVRKIPSLGMCFCEENKEEGKWELVNPPVKTLTHGANAAFNWRNWISGN
As to B1, the binding entry was “binds”.
